Measurements reported in US6207816.
Negatives hold for the conditions tested.

Protein sequences, listed by entry. Tags and fused reporters are not part of them. Residues count along the entry.
UniProt P01137, 279-390: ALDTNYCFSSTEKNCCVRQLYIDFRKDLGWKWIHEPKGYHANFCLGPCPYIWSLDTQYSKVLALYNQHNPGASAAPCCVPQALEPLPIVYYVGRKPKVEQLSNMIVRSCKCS

Target: TGF-beta1 (Homo sapiens) (UniProt P01137)
Test: filter binding
Settings: modification not tolerated, purified recombinant protein, protein details: Genentech

Sequence	binding result (2'-F pyrimidines)	binding result (2'-NH2 pyrimidines)
GGGGGAGAACGCGGAUCCGGUCACCCGGGCAUAUAACAAUGCCGACACUGGGGUACCUGGGACGGGUGGGACUGGACGGAAGAAGCUUCGCUCUAGAUCUCCCUUUAGUGAGGGUUA [lib1-20-12 2'-F]	no binding	–
GGGGGAGAACGCGGAUCCAUAACCGGCUGCAUGGGAGGGACAUCCUGGGAAAGGACGGGUCGAGAUGACCUGAGCAGUUCCGGCAAGCUUCGCUCUAGAUCUCCCUUUAGUGAGGGUUA [lib2-6-8 2'-NH2]	–	no binding
GGGGGAGAACGCGGAUCCGGUCACCCGGGCAUAUAACAAUGCCGACACUGGGGUACCUGGGACGGGUGGGACUGGACGGAAGAAGCUUCGCUCUAGAUCUCCCUUUAGUGAGGGUUA [lib1-20-12 2'-NH2]	–	no binding
GGGGGAGAACGCGGAUCCAUAACCGGCUGCAUGGGAGGGACAUCCUGGGAAAGGACGGGUCGAGAUGACCUGAGCAGUUCCGGCAAGCUUCGCUCUAGAUCUCCCUUUAGUGAGGGUUA [lib2-6-8 2'-F]	no binding	–
